Test results from patent US20240287195A1.
No constants are given. Whether binding was seen depends on the method and setting. Some binding calls cover weakened binding; strength is not graded here.

How the values were obtained:
[1] = target: human galectin-9 on the cell surface (human) (UniProt O00182); test: flow cytometry, % Gal9+ of EpCam+ cells, colorectal carcinoma biopsy, S3 fraction by the legend
[2] = target: human galectin-9 on the cell surface (human) (UniProt O00182); test: flow cytometry, % Gal9+ of EpCam+ cells, colorectal carcinoma biopsy, S2 fraction by the legend
[3] = target: human galectin-9 on the cell surface (human) (UniProt O00182); test: flow cytometry, % Gal9+ of CD11b+ cells, second pancreatic adenocarcinoma biopsy, S3 fraction by the legend
[4] = target: human galectin-9 on the cell surface (human) (UniProt O00182); test: flow cytometry, % Gal9+ of CD3+ cells, second pancreatic adenocarcinoma biopsy, S2 fraction by the legend
[5] = target: human galectin-9 on the cell surface (human) (UniProt O00182); test: flow cytometry, % Gal9+ of EpCam+ cells, pancreatic adenocarcinoma biopsy, S3 fraction by the legend
[6] = target: human galectin-9 on the cell surface (human) (UniProt O00182); test: flow cytometry on cells of patient tumor-derived S2 and S3 fractions
[7] = target: human galectin-9 on the cell surface (human) (UniProt O00182); test: flow cytometry, % Gal9+ of CD3+ cells, second pancreatic adenocarcinoma biopsy, S3 fraction by the legend
[8] = target: human galectin-9 on the cell surface (human) (UniProt O00182); test: flow cytometry, % Gal9+ of EpCam+ cells, second pancreatic adenocarcinoma biopsy, S3 fraction by the legend
[9] = target: human galectin-9 on the cell surface (human) (UniProt O00182); test: flow cytometry, % Gal9+ of CD11b+ cells, colorectal carcinoma biopsy, S3 fraction by the legend
[10] = target: human galectin-9 on the cell surface (human) (UniProt O00182); test: flow cytometry, % Gal9+ of EpCam+ cells, pancreatic adenocarcinoma biopsy, S2 fraction by the legend
[11] = target: human galectin-9 on the cell surface (human) (UniProt O00182); test: flow cytometry, % Gal9+ of CD3+ cells, pancreatic adenocarcinoma biopsy, S2 fraction by the legend
[12] = target: human galectin-9 on the cell surface (human) (UniProt O00182); test: flow cytometry, % Gal9+ of CD11b+ cells, colorectal carcinoma biopsy, S2 fraction by the legend
[13] = target: human galectin-9 on the cell surface (human) (UniProt O00182); test: flow cytometry, % Gal9+ of CD3+ cells, colorectal carcinoma biopsy, S3 fraction by the legend
[14] = target: human galectin-9 on the cell surface (human) (UniProt O00182); test: flow cytometry, % Gal9+ of CD11b+ cells, pancreatic adenocarcinoma biopsy, S2 fraction by the legend
[15] = target: human galectin-9 on the cell surface (human) (UniProt O00182); test: flow cytometry, % Gal9+ of CD3+ cells, pancreatic adenocarcinoma biopsy, S3 fraction by the legend
[16] = target: human galectin-9 on the cell surface (human) (UniProt O00182); test: flow cytometry, % Gal9+ of EpCam+ cells, second pancreatic adenocarcinoma biopsy, S2 fraction by the legend
[17] = target: human galectin-9 on the cell surface (human) (UniProt O00182); test: flow cytometry, % Gal9+ of CD11b+ cells, pancreatic adenocarcinoma biopsy, S3 fraction by the legend
[18] = target: human galectin-9 on the cell surface (human) (UniProt O00182); test: flow cytometry, % Gal9+ of CD11b+ cells, second pancreatic adenocarcinoma biopsy, S2 fraction by the legend
[19] = target: human galectin-9 on the cell surface (human) (UniProt O00182); test: flow cytometry, % Gal9+ of CD3+ cells, colorectal carcinoma biopsy, S2 fraction by the legend
[20] = target: cynomolgus galectin-9 CRD2 domain (cynomolgus monkey); test: in vitro
[21] = target: human galectin-9 on the cell surface (human) (UniProt O00182); test: cell based binding
[22] = target: cynomolgus galectin-9 CRD2 domain (cynomolgus monkey); test: bead based binding
[23] = target: human galectin-9 on the cell surface (human) (UniProt O00182); test: flow cytometry, surface staining of CRL-2134 cells against HEK-293 cells

Measured: binding

B1: G9.2-17 Fab (Fab, V domains shown)
VH: EVQLVESGGGLVQPGGSLRLSCAASGFTVSSSSIHWVRQAPGKGLEWVAYISSSSGYTYYADSVKGRFTISADTSKNTAYLQMNSLRAEDTAVYYCARYWSYPSWWPYRGMDYWGQGTLVTVSS
VL: DIQMTQSPSSLSASVGDRVTITCRASQSVSSAVAWYQQKPGKAPKLLIYSASSLYSGVPSRFSGSRSGTDFTLTISSLQPEDFATYYCQQSSTDPITFGQGTKVEIKR
not listed: [20] | [21] | [22] | [23]
binds: all other assays above

B2: G9.2-17 mIgG1 (mouse IgG1 version of G9.2-17) (antibody, V domains shown)
VH: EVQLVESGGGLVQPGGSLRLSCAASGFTVSSSSIHWVRQAPGKGLEWVAYISSSSGYTYYADSVKGRFTISADTSKNTAYLQMNSLRAEDTAVYYCARYWSYPSWWPYRGMDYWGQGTLVTVSS
VL: DIQMTQSPSSLSASVGDRVTITCRASQSVSSAVAWYQQKPGKAPKLLIYSASSLYSGVPSRFSGSRSGTDFTLTISSLQPEDFATYYCQQSSTDPITFGQGTKVEIKR
binds: [20] | [21] | [22]

B3: G9.2-17 IgG4 (antibody, V domains shown)
VH: EVQLVESGGGLVQPGGSLRLSCAASGFTVSSSSIHWVRQAPGKGLEWVAYISSSSGYTYYADSVKGRFTISADTSKNTAYLQMNSLRAEDTAVYYCARYWSYPSWWPYRGMDYWGQGTLVTVSS
VL: DIQMTQSPSSLSASVGDRVTITCRASQSVSSAVAWYQQKPGKAPKLLIYSASSLYSGVPSRFSGSRSGTDFTLTISSLQPEDFATYYCQQSSTDPITFGQGTKVEIKR
binds: [20] | [23]
